# Measured values reported in PMC4207616.
# Results are given in words; binding and its absence hold for the method and conditions named. Binding seen in cells or lysates may run through a third protein. Some entries that bind do so weakly or less than the wild type. Where a sequence is shown, tags or fusion partners need not be part of it.
# T1: RRS1^WT-His-Flag (Arabidopsis thaliana) (UniProt C4B7M5)
# T1 sequence: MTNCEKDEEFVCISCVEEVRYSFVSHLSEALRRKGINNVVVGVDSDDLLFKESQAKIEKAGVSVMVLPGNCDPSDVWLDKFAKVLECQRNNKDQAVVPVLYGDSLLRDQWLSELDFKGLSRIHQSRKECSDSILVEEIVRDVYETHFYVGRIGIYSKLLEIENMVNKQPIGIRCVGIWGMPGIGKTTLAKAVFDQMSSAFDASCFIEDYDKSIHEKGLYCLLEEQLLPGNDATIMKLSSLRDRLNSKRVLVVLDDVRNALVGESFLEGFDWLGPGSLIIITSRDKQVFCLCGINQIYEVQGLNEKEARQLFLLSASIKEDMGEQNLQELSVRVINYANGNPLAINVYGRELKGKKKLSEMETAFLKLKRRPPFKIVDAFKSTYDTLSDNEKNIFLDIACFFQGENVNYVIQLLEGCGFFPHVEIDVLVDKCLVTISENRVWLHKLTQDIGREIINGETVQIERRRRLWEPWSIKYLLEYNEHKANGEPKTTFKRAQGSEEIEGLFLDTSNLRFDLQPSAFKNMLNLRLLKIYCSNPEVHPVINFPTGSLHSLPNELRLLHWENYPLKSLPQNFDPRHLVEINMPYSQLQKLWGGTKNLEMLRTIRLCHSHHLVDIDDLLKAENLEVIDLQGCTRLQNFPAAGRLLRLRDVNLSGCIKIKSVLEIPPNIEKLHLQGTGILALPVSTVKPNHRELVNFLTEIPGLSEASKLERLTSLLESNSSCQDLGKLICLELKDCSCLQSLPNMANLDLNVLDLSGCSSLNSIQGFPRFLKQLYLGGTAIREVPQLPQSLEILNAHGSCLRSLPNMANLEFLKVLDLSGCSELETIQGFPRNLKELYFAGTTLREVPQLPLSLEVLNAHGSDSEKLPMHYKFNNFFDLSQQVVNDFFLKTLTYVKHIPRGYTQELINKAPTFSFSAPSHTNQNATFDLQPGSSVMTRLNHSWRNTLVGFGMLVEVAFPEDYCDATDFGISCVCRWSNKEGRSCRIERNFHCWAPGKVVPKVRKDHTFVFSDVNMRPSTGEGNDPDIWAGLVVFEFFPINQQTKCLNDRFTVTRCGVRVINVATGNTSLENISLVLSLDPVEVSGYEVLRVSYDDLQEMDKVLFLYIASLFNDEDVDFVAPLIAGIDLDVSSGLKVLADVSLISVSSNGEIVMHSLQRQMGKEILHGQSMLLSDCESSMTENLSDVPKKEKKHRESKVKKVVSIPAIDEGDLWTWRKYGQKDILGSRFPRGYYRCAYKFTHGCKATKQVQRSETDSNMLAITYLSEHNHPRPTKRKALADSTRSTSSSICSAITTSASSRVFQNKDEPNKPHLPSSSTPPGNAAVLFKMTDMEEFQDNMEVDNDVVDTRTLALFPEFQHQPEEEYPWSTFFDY
# Molecular target: T1, RRS1^WT-His-Flag (Arabidopsis thaliana)
# Assay: co-IP; RRS1-His-Flag and RPS4-HA variants transiently co-expressed in N. benthamiana (48 h after agroinfiltration); extract in GTEN buffer (10% glycerol, 100 mM Tris-HCl pH 7.5, 1 mM EDTA, 150 mM NaCl) with 5 mM DTT, protease inhibitors, 0.2% Nonidet P-40; anti-FLAG M2 or anti-HA affinity gel, 2 h at 4°C; immunoblot
row,Binder,binding
1,"RPS4^WT-HA (protein, UniProt Q9XGM3 1-1217) METSSISTVEDKPPQHQVFINFRGADLRRRFVSHLVTALKLNNINVFIDDYEDRGQPLDVLLKRIEESKIVLAIFSGNYTESVWCVRELEKIKDCTDEGTLVAIPIFYKLEPSTVRDLKGKFGDRFRSMAKGDERKKKWKEAFNLIPNIMGIIIDKKSVESEKVNEIVKAVKTALTGIPPEGSHNAVVGALGNSNAGTSSGDKKHETFGNEQRLKDLEEKLDRDKYKGTRIIGVVGMPGIGKTTLLKELYKTWQGKFSRHALIDQIRVKSKHLELDRLPQMLLGELSKLNHPHVDNLKDPYSQLHERKVLVVLDDVSKREQIDALREILDWIKEGKEGSRVVIATSDMSLTNGLVDDTYMVQNLNHRDSLQLFHYHAFIDDQANPQKKDFMKLSEGFVHYARGHPLALKVLGGELNKKSMDHWNSKMKKLAQSPSPNIVSVFQVSYDELTTAQKDAFLDIACFRSQDKDYVESLLASSDLGSAEAMSAVKSLTDKFLINTCDGRVEMHDLLYKFSREVDLKASNQDGSRQRRLWLHQHIIKGGIINVLQNKMKAANVRGIFLDLSEVEDETSLDRDHFINMGNLRYLKFYNSHCPQECKTNNKINIPDKLKLPLKEVRCLHWLKFPLETLPNDFNPINLVDLKLPYSEMEQLWEGDKDTPCLRWVDLNHSSKLCSLSGLSKAEKLQRLNLEGCTTLKAFPHDMKKMKMLAFLNLKGCTSLESLPEMNLISLKTLTLSGCSTFKEFPLISDNIETLYLDGTAISQLPMNMEKLQRLVVLNMKDCKMLEEIPGRVGELKALQELILSDCLNLKIFPEIDISFLNILLLDGTAIEVMPQLPSVQYLCLSRNAKISCLPVGISQLSQLKWLDLKYCTSLTSVPEFPPNLQCLDAHGCSSLKTVSKPLARIMPTEQNHSTFIFTNCENLEQAAKEEITSYAQRKCQLLSYARKRYNGGLVSESLFSTCFPGCEVPSWFCHETVGSELEVKLLPHWHDKKLAGIALCAVVSCLDPQDQVSRLSVTCTFKVKDEDKSWVAYTCPVGSWTRHGGGKDKIELDHVFIGYTSCPHTIKCHEEGNSDECNPTEASLKFTVTGGTSENGKYKVLKCGLSLVYAKDKDKNSALETKYDMLIGKSFQETSEGVDGRVKKTKGKYVMPVEKNFQETTEGVDGRVNKKKKTRMDNGRPKKKQRSGRDDNQTRMQVELQEGNINSVIMHTVKNF",binds
2,"RPS4^SH-AA-HA (protein, UniProt Q9XGM3 1-1217) METSSISTVEDKPPQHQVFINFRGADLRRRFVAALVTALKLNNINVFIDDYEDRGQPLDVLLKRIEESKIVLAIFSGNYTESVWCVRELEKIKDCTDEGTLVAIPIFYKLEPSTVRDLKGKFGDRFRSMAKGDERKKKWKEAFNLIPNIMGIIIDKKSVESEKVNEIVKAVKTALTGIPPEGSHNAVVGALGNSNAGTSSGDKKHETFGNEQRLKDLEEKLDRDKYKGTRIIGVVGMPGIGKTTLLKELYKTWQGKFSRHALIDQIRVKSKHLELDRLPQMLLGELSKLNHPHVDNLKDPYSQLHERKVLVVLDDVSKREQIDALREILDWIKEGKEGSRVVIATSDMSLTNGLVDDTYMVQNLNHRDSLQLFHYHAFIDDQANPQKKDFMKLSEGFVHYARGHPLALKVLGGELNKKSMDHWNSKMKKLAQSPSPNIVSVFQVSYDELTTAQKDAFLDIACFRSQDKDYVESLLASSDLGSAEAMSAVKSLTDKFLINTCDGRVEMHDLLYKFSREVDLKASNQDGSRQRRLWLHQHIIKGGIINVLQNKMKAANVRGIFLDLSEVEDETSLDRDHFINMGNLRYLKFYNSHCPQECKTNNKINIPDKLKLPLKEVRCLHWLKFPLETLPNDFNPINLVDLKLPYSEMEQLWEGDKDTPCLRWVDLNHSSKLCSLSGLSKAEKLQRLNLEGCTTLKAFPHDMKKMKMLAFLNLKGCTSLESLPEMNLISLKTLTLSGCSTFKEFPLISDNIETLYLDGTAISQLPMNMEKLQRLVVLNMKDCKMLEEIPGRVGELKALQELILSDCLNLKIFPEIDISFLNILLLDGTAIEVMPQLPSVQYLCLSRNAKISCLPVGISQLSQLKWLDLKYCTSLTSVPEFPPNLQCLDAHGCSSLKTVSKPLARIMPTEQNHSTFIFTNCENLEQAAKEEITSYAQRKCQLLSYARKRYNGGLVSESLFSTCFPGCEVPSWFCHETVGSELEVKLLPHWHDKKLAGIALCAVVSCLDPQDQVSRLSVTCTFKVKDEDKSWVAYTCPVGSWTRHGGGKDKIELDHVFIGYTSCPHTIKCHEEGNSDECNPTEASLKFTVTGGTSENGKYKVLKCGLSLVYAKDKDKNSALETKYDMLIGKSFQETSEGVDGRVKKTKGKYVMPVEKNFQETTEGVDGRVNKKKKTRMDNGRPKKKQRSGRDDNQTRMQVELQEGNINSVIMHTVKNF",binds
3,"RPS4^K242A-HA (protein, UniProt Q9XGM3 1-1217) METSSISTVEDKPPQHQVFINFRGADLRRRFVSHLVTALKLNNINVFIDDYEDRGQPLDVLLKRIEESKIVLAIFSGNYTESVWCVRELEKIKDCTDEGTLVAIPIFYKLEPSTVRDLKGKFGDRFRSMAKGDERKKKWKEAFNLIPNIMGIIIDKKSVESEKVNEIVKAVKTALTGIPPEGSHNAVVGALGNSNAGTSSGDKKHETFGNEQRLKDLEEKLDRDKYKGTRIIGVVGMPGIGATTLLKELYKTWQGKFSRHALIDQIRVKSKHLELDRLPQMLLGELSKLNHPHVDNLKDPYSQLHERKVLVVLDDVSKREQIDALREILDWIKEGKEGSRVVIATSDMSLTNGLVDDTYMVQNLNHRDSLQLFHYHAFIDDQANPQKKDFMKLSEGFVHYARGHPLALKVLGGELNKKSMDHWNSKMKKLAQSPSPNIVSVFQVSYDELTTAQKDAFLDIACFRSQDKDYVESLLASSDLGSAEAMSAVKSLTDKFLINTCDGRVEMHDLLYKFSREVDLKASNQDGSRQRRLWLHQHIIKGGIINVLQNKMKAANVRGIFLDLSEVEDETSLDRDHFINMGNLRYLKFYNSHCPQECKTNNKINIPDKLKLPLKEVRCLHWLKFPLETLPNDFNPINLVDLKLPYSEMEQLWEGDKDTPCLRWVDLNHSSKLCSLSGLSKAEKLQRLNLEGCTTLKAFPHDMKKMKMLAFLNLKGCTSLESLPEMNLISLKTLTLSGCSTFKEFPLISDNIETLYLDGTAISQLPMNMEKLQRLVVLNMKDCKMLEEIPGRVGELKALQELILSDCLNLKIFPEIDISFLNILLLDGTAIEVMPQLPSVQYLCLSRNAKISCLPVGISQLSQLKWLDLKYCTSLTSVPEFPPNLQCLDAHGCSSLKTVSKPLARIMPTEQNHSTFIFTNCENLEQAAKEEITSYAQRKCQLLSYARKRYNGGLVSESLFSTCFPGCEVPSWFCHETVGSELEVKLLPHWHDKKLAGIALCAVVSCLDPQDQVSRLSVTCTFKVKDEDKSWVAYTCPVGSWTRHGGGKDKIELDHVFIGYTSCPHTIKCHEEGNSDECNPTEASLKFTVTGGTSENGKYKVLKCGLSLVYAKDKDKNSALETKYDMLIGKSFQETSEGVDGRVKKTKGKYVMPVEKNFQETTEGVDGRVNKKKKTRMDNGRPKKKQRSGRDDNQTRMQVELQEGNINSVIMHTVKNF",binds
